Counter-ions that a name gives are not always drawn. This is one part of the list. Many values rest on one well or one pass, so single values are uncertain.
Columns and labels:
[1] = test system: Saos-2; experiment: cell viability (CCK-8) relative to DMSO control (% of control); higher = less cytotoxic; settings: 10 µM; 48 h
[2] = test system: U2OS; experiment: as above; settings: 10 µM; 48 h

Structure (SMILES): N[C@@H]1C[C@H]1c1ccccc1.N[C@H]1C[C@@H]1c1ccccc1 [Tranylcypromine Hemisulfate]
- cell viability [1]: 56.9
- cell viability [2]: 107

Structure (SMILES): CCOC(=O)c1cncn1[C@H](C)c1ccccc1 [Etomidate]
- cell viability [1]: 105
- cell viability [2]: 93

Structure (SMILES): N[C@@H](Cc1ccc(N(CCCl)CCCl)cc1)C(=O)O [Melphalan]
- cell viability [1]: 59.7
- cell viability [2]: 87.6

Structure (SMILES): CCN(C(C)=O)c1cccc(-c2ccnc3c(C#N)cnn23)c1 [Zaleplon]
- cell viability [1]: 138
- cell viability [2]: 85

Structure (SMILES): CC[C@@H](CO)NC(=O)[C@@H]1C=C2c3cccc4[nH]cc(c34)C[C@H]2N(C)C1 [Methylergonovine Maleate]
- cell viability [1]: 97.6
- cell viability [2]: 101

Structure (SMILES): O=C(O[C@H]1C[C@H]2CC[C@@H](C1)[N+]21CCCC1)C(O)(c1ccccc1)c1ccccc1 [Trospium Chloride]
- cell viability [1]: 137
- cell viability [2]: 76.2

Structure (SMILES): CC(C)c1cccc(C(C)C)c1O [Propofol]
- cell viability [1]: 59.5
- cell viability [2]: 105

Structure (SMILES): CC(C)N(CCC(C(N)=O)(c1ccccc1)c1ccccn1)C(C)C (stereo not given) [Disopyramide]
- cell viability [1]: 113
- cell viability [2]: 108

Structure (SMILES): C=CCN1CC[C@]23c4c5ccc(O)c4O[C@H]2C(=O)CC[C@@]3(O)[C@H]1C5 [Naloxone . hydrochloride]
- cell viability [1]: 67.1
- cell viability [2]: 106

Structure (SMILES): Nc1ccncc1 [4-Aminopyridine]
- cell viability [1]: 109
- cell viability [2]: 90.5

Structure (SMILES): COc1cc2c(c(OC)c1OC)-c1ccc(OC)c(=O)cc1[C@@H](NC(C)=O)CC2 [Colchicine]
- cell viability [1]: 39.4
- cell viability [2]: 52

Structure (SMILES): CCOC(=O)CC(SP(=S)(OC)OC)C(=O)OCC (stereo not given) [Malathion]
- cell viability [1]: 110
- cell viability [2]: 94.9

Structure (SMILES): NCCCNCCSP(=O)(O)O [Amifostine]
- cell viability [1]: 64.1
- cell viability [2]: 118

Structure (SMILES): COC[C@@H](NC(C)=O)C(=O)NCc1ccccc1 [Lacosamide]
- cell viability [1]: 118
- cell viability [2]: 81.1

Structure (SMILES): CN1[C@@H]2CC[C@H]1C[C@@H](OC(=O)C(CO)c1ccccc1)C2 (stereo not given in full) [Atropine Sulfate Monohydrate]
- cell viability [1]: 60.3
- cell viability [2]: 109

Structure (SMILES): CCN(C)C(=O)Oc1cccc([C@H](C)N(C)C)c1 [Rivastigmine Tartrate]
- cell viability [1]: 65.7
- cell viability [2]: 87.7

Structure (SMILES): COc1cc([C@@H]2c3cc4c(cc3[C@H](O)[C@H]3COC(=O)[C@H]23)OCO4)cc(OC)c1OC [Podophyllotoxin]
- cell viability [1]: 44.6
- cell viability [2]: 64.2

Structure (SMILES): CN1[C@@H]2C[C@@H](OC(=O)[C@H](CO)c3ccccc3)C[C@H]1[C@@H]1O[C@@H]12 [Scopolamine hydrobromide]
- cell viability [1]: 68.4
- cell viability [2]: 113

Structure (SMILES): Cn1c(CCCC(=O)O)nc2cc(N(CCCl)CCCl)ccc21 [Bendamustine hydrochloride]
- cell viability [1]: 109
- cell viability [2]: 73.4

Structure (SMILES): CN(C)C(=O)Oc1ccc[n+](C)c1 [Pyridostigmine Bromide]
- cell viability [1]: 107
- cell viability [2]: 94.2

Structure (SMILES): C=C1C[C@@H]2[C@H](CC[C@]3(C)C(=O)CC[C@@H]23)[C@@]2(C)C=CC(=O)C=C12 [Exemestane]
- cell viability [1]: 54.7
- cell viability [2]: 138

Structure (SMILES): CC1(C)C(C=C(Cl)Cl)C1C(=O)OCc1cccc(Oc2ccccc2)c1 (stereo not given) [Permethrin]
- cell viability [1]: 111
- cell viability [2]: 103

Structure (SMILES): NCC(CC(=O)O)c1ccc(Cl)cc1 (racemic) [(±)-Baclofen]
- cell viability [1]: 121
- cell viability [2]: 109

Structure (SMILES): C#CCN(C)[C@H](C)Cc1ccccc1 [Selegiline·HCl]
- cell viability [1]: 110
- cell viability [2]: 92.9

Structure (SMILES): N.N.[Cl][Pt][Cl] [Cisplatin]
- cell viability [1]: 93.4
- cell viability [2]: 94.5

Structure (SMILES): C=CCN1C[C@H](C(=O)N(CCCN(C)C)C(=O)NCC)C[C@@H]2c3cccc4[nH]cc(c34)C[C@H]21 [Cabergoline]
- cell viability [1]: 57.4
- cell viability [2]: 122

Structure (SMILES): O=P1(NCCCl)OCCCN1CCCl (stereo not given) [Ifosfamide]
- cell viability [1]: 68.2
- cell viability [2]: 101

Structure (SMILES): O=C(O)CCCc1ccc(N(CCCl)CCCl)cc1 [Chlorambucil]
- cell viability [1]: 63.6
- cell viability [2]: 94.5

Structure (SMILES): Cl[C@H]1[C@H](Cl)[C@@H](Cl)[C@@H](Cl)[C@H](Cl)[C@H]1Cl [Lindane]
- cell viability [1]: 108
- cell viability [2]: 109

Structure (SMILES): COc1cccc(C2(O)CCCCC2CN(C)C)c1 (stereo not given) [Tramadol·HCl]
- cell viability [1]: 66
- cell viability [2]: 101

Structure (SMILES): NCC1(CC(=O)O)CCCCC1 [Gabapentin]
- cell viability [1]: 58.9
- cell viability [2]: 112

Structure (SMILES): C[N+]1(C)[C@@H]2C[C@@H](OC(=O)[C@H](CO)c3ccccc3)C[C@H]1[C@@H]1O[C@@H]12 [(-)-Scopolamine Methyl Bromide]
- cell viability [1]: 99.6
- cell viability [2]: 102

Structure (SMILES): CC(C)C[C@H]1C(=O)N2CCC[C@H]2[C@]2(O)O[C@](NC(=O)[C@@H]3C=C4c5cccc6[nH]c(Br)c(c56)C[C@H]4N(C)C3)(C(C)C)C(=O)N12 [Bromocriptine Mesylate]
- cell viability [1]: 64.2
- cell viability [2]: 109

Structure (SMILES): CC1C=CC=CCCC=CC=CC=CC=CC(OC2OC(C)C(O)C(N)C2O)CC2OC(O)(CC(O)C(O)CCC(O)CC(O)CC(O)CC(=O)OC(C)C(C)C1O)CC(O)C2C(=O)O (stereo not given) [Nystatin]
- cell viability [1]: 71.6
- cell viability [2]: 93.2

Structure (SMILES): CC[C@@H](C(N)=O)N1CCCC1=O [Levetiracetam]
- cell viability [1]: 64.3
- cell viability [2]: 100

Structure (SMILES): CC(=O)O[C@H]1C[C@@H]2CC[C@@H]3[C@H](CC[C@@]4(C)[C@H]3C[C@H]([N+]3(C)CCCCC3)[C@@H]4OC(C)=O)[C@@]2(C)C[C@@H]1[N+]1(C)CCCCC1 [Pancuronium . dibromide]
- cell viability [1]: 62.2
- cell viability [2]: 105

Structure (SMILES): CC(NC(C)(C)C)C(=O)c1cccc(Cl)c1 (stereo not given) [Bupropion]
- cell viability [1]: 121
- cell viability [2]: 104

Structure (SMILES): Oc1ccc2c3c1O[C@H]1[C@@H](O)CC[C@@]4(O)[C@@H](C2)N(CC2CCC2)CC[C@]314 [Nalbuphine hydrochloride hydrate]
- cell viability [1]: 63.1
- cell viability [2]: 106

Structure (SMILES): COc1ccc(C(CN(C)C)C2(O)CCCCC2)cc1 (stereo not given) [Venlafaxine·HCl]
- cell viability [1]: 65.1
- cell viability [2]: 93.7

Structure (SMILES): COc1cc2c(cc1OC)C1CC(=O)C(CC(C)C)CN1CC2 (stereo not given) [Tetrabenazine]
- cell viability [1]: 110
- cell viability [2]: 98.6

Structure (SMILES): O=C1CC[C@@]2(O)[C@H]3Cc4ccc(O)c5c4[C@@]2(CCN3CC2CC2)[C@H]1O5 [Naltrexone·HCl]
- cell viability [1]: 61.1
- cell viability [2]: 117

Structure (SMILES): O=[N+]([O-])O[C@H]1CO[C@H]2[C@@H]1OC[C@H]2O[N+](=O)[O-] [Isosorbide . Dinitrate]
- cell viability [1]: 106
- cell viability [2]: 95.1

Structure (SMILES): C[N+]1(C)CCCC(OC(=O)C(O)(c2ccccc2)c2ccccc2)C1 (stereo not given) [Mepenzolate Bromide]
- cell viability [1]: 107
- cell viability [2]: 101

Structure (SMILES): O=P1(N(CCCl)CCCl)NCCCO1 (stereo not given) [Cyclophosphamide . monohydrate]
- cell viability [1]: 67.8
- cell viability [2]: 101

Structure (SMILES): Cc1cccc([C@H](C)c2c[nH]cn2)c1C [Dexmedetomidine·HCl]
- cell viability [1]: 101
- cell viability [2]: 108

Structure (SMILES): O=c1[nH]c2ccccc2n1C1CCN(CCCC(c2ccc(F)cc2)c2ccc(F)cc2)CC1 [Pimozide]
- cell viability [1]: 55.9
- cell viability [2]: 112

Structure (SMILES): CC(O)(CS(=O)(=O)c1ccc(F)cc1)C(=O)Nc1ccc(C#N)c(C(F)(F)F)c1 (stereo not given) [Bicalutamide]
- cell viability [1]: 67
- cell viability [2]: 101

Structure (SMILES): CN1C[C@H](C(=O)N[C@]2(C)O[C@@]3(O)[C@@H]4CCCN4C(=O)[C@H](Cc4ccccc4)N3C2=O)C[C@@H]2c3cccc4[nH]cc(c34)C[C@H]21 [Dihydroergotamine Mesylate]
- cell viability [1]: 56.9
- cell viability [2]: 120

Structure (SMILES): CN1CCN(C(=O)O[C@H]2c3nccnc3C(=O)N2c2ccc(Cl)cn2)CC1 [Eszopiclone]
- cell viability [1]: 98.7
- cell viability [2]: 53.4

Structure (SMILES): COc1ccc2c(c1)[C@]13CCCC[C@@H]1[C@H](C2)N(C)CC3 [Dextromethorphan]
- cell viability [1]: 71.8
- cell viability [2]: 102
